From US20200325224A1
These are yes or no findings as the source states them, for the method shown. Some results given as binding are weak or reduced against the parent protein; the word gives no strength.

Protein sequences, listed by entry. Tags and fused reporters are not part of them. Lines headed by an entry give the natural chain unless they say otherwise; changes in a name come on top.
UniProt Q95LI5: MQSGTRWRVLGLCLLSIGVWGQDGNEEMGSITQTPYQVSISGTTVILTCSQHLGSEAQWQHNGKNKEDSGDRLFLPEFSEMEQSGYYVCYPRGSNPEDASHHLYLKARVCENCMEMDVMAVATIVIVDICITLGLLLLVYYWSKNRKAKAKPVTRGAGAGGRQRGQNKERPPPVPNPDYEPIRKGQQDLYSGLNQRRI

How the values were obtained:
[1] = target: T1, cynomolgus CD3e amino acids 69-88 peptide (1:1 mixture of N- and C-terminally biotinylated variants) (cynomolgus); test: ELISA, biotinylated target on streptavidin plate
T1 sequence (peptide, biotin attached via linker to the N- or the C-terminus (1,1 mixture)): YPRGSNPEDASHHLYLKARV

[2] = target: cynomolgus CD3e stalk-Fc(knob)-Avi/CD3d-stalk-Fc(hole) (cynomolgus); test: ELISA, biotinylated target on streptavidin plate
[3] = target: T2, Biotin-Linker-cynomolgus CD3e amino acids 69-88 (SEQ ID NO: 29) (cynomolgus); test: ELISA, biotinylated peptide on streptavidin plate
T2 sequence (peptide, N-terminal Biotin-Linker): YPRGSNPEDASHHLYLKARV

[4] = target: T1, cynomolgus CD3e amino acids 69-88 peptide (1:1 mixture of N- and C-terminally biotinylated variants) (cynomolgus); test: ELISA, biotinylated peptide on streptavidin plate
[5] = target: T3, cynomolgus CD3e amino acids 69-88 (SEQ ID NO: 29)-Linker-Biotin (cynomolgus); test: ELISA, biotinylated peptide on streptavidin plate
T3 sequence (peptide, C-terminal Linker-Biotin): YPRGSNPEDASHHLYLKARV

[6] = target: T3, cynomolgus CD3e amino acids 69-88 (SEQ ID NO: 29)-Linker-Biotin (cynomolgus); test: ELISA, peptide on streptavidin plate via C-terminal biotin
[7] = target: cynomolgus CD3 epsilon (on expanded cynomolgus T cells) (cynomolgus) (UniProt Q95LI5); test: flow cytometry on expanded cynomolgus T cells
[8] = target: T2, Biotin-Linker-cynomolgus CD3e amino acids 69-88 (SEQ ID NO: 29) (cynomolgus); test: ELISA, peptide on streptavidin plate via N-terminal biotin

binding [1]: binds
binding [2]: binds
binding [3]: binds
binding [4]: binds
binding [5]: binds
binding [6]: binds
binding [7]: binds
binding [8]: binds
B1: antibody clone 645 (antibody, V domains shown)
VH: QSLEESGGDLVKPGASLTLTCLASGFSFSGTYWICWVRQAPGKGLEWIGCISTDSGSTYYASWAKGRFTISKTSSTTVTLQMTSLTAADTATNFCARSAYASEGYALWGPGTLVTVSS
VL: AIVMTQTPSSKSVPVGDTVTINCQASESVYNNNYLSWYQQKPGQPPKLLIYYASTLASGVSSRFKGSGSGTQFTLTISDVVCDDAATYYCTGWKSITTDGMGAFGGGTEVVVKG
